PubChem BioAssay AID1159578 | Peter MacCallum Cancer Centre | 2015

Screen: 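Genome-wide hunt for genes controlling movement of lymphatic endothelial cells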 (primary screen)
Cells: human lymphatic endothelial cells
Reagents: siRNA pool against human genes, 40 nM
Time to read-out: 48 h after transfection
Measured: 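High-content imaging of dye-stained cells in a scratch assay measures filled wound area and nuclei per well; duplicate means given as ratio to mock and robust z-score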
Reading the numbers: migration robust z-score: higher = faster migration into the scratch; migration relative to mock: higher = more scratch area covered than mock; nuclei per well: higher = more cells in the well
Active means: 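Pools averaging fewer than 3300 nuclei are never called; remaining pools count as changed when migration robust z lies outside -2 to 2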
Calls: active = migration changed; inactive = no migration change, or too few cells
In all, the deposit lists about 18,000 reagents; this is a part drawn at random. About 1,030 of all reagents (5.7%) count as active. 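Inactive calls also include pools with fewer than 3300 nuclei, whose migration was not assessed.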 Raw values are not corrected between plates. Entries without a mark were called inactive. No sequences are given here.

| Gene | migration robust z-score | migration class with cell-count check | migration relative to mock | nuclei per well, duplicate mean |
| --- | --- | --- | --- | --- |
| UPK3B (uroplakin 3B) | -1.19 | migration z between -2 and 2; enough cells | 0.57 | 4648 |
| EIF2A (eukaryotic translation initiation factor 2A) | 0.29 | migration z between -2 and 2; enough cells | 0.86 | 5664 |
| DCP1A (decapping mRNA 1A) | 1.81 | migration z between -2 and 2; enough cells | 1.36 | 5288 |
| WDR62 (WD repeat domain 62) | 0.59 | migration z between -2 and 2; enough cells | 1.04 | 5692 |
| ZFYVE1 (zinc finger FYVE-type containing 1) | -1.38 | migration z between -2 and 2; enough cells | 0.53 | 5062 |
| RBAKDN (RBAK downstream neighbor) | 1.61 | migration z between -2 and 2; enough cells | 1.3 | 6118 |
| PURA (purine rich element binding protein A) | -0.28 | migration z between -2 and 2; enough cells | 0.75 | 5590 |
| TMEM198 (transmembrane protein 198) | -0.92 | migration z between -2 and 2; enough cells | 0.64 | 5957 |
| TMEM150C (transmembrane protein 150C) | 1.16 | migration z between -2 and 2; enough cells | 1.19 | 5106 |
| CIRSR (corepressor of RBPJ and splicing regulator) | -1.52 | migration z between -2 and 2; enough cells | 0.5 | 3732 |
| STK25 (serine/threonine kinase 25) | -1.35 | migration z between -2 and 2; enough cells | 0.55 | 5868 |
| TLCD4 (TLC domain containing 4) | 1.44 | migration z between -2 and 2; enough cells | 1.26 | 6944 |
| KRT77 (keratin 77) | 0.16 | migration z between -2 and 2; enough cells | 0.92 | 6359 |
| AFF2 (ALF transcription elongation factor 2) | 1.94 | migration z between -2 and 2; enough cells | 1.39 | 5733 |
| SIX5 (SIX homeobox 5) | -0.7 | migration z between -2 and 2; enough cells | 0.7 | 4996 |
| HTRA3 (HtrA serine peptidase 3) | -0.02 | migration z between -2 and 2; enough cells | 0.8 | 4490 |
| SHOC1 (shortage in chiasmata 1) | -0.26 | migration z between -2 and 2; enough cells | 0.82 | 6454 |
| CUBN (cubilin) | 0.08 | migration z between -2 and 2; enough cells | 0.9 | 6369 |
| ZNF777 (zinc finger protein 777) | -1.55 | migration z between -2 and 2; enough cells | 0.48 | 5264 |
| ZNF502 (zinc finger protein 502) | 2.02 (active) | migration z above 2; enough cells | 1.4 | 5235 |
| STPG3 (sperm-tail PG-rich repeat containing 3) | 2.88 (active) | migration z above 2; enough cells | 1.64 | 6480 |
| PLXNA4 (plexin A4) | -0.05 | migration z between -2 and 2; enough cells | 0.86 | 5255 |
| C1orf74 (chromosome 1 open reading frame 74) | 0.08 | migration z between -2 and 2; enough cells | 0.9 | 5819 |
| COTL1 (coactosin like F-actin binding protein 1) | 0.6 | migration z between -2 and 2; enough cells | 1.04 | 5442 |
| TBX3 (T-box transcription factor 3) | 0.52 | migration z between -2 and 2; enough cells | 0.9 | 5566 |
| CLEC2L (C-type lectin domain family 2 member L) | 0.24 | migration z between -2 and 2; enough cells | 0.94 | 6108 |
| AURKB (aurora kinase B) | 0.65 | migration z between -2 and 2; enough cells | 0.93 | 5393 |
| THAP10 (THAP domain containing 10) | 0.44 | migration z between -2 and 2; enough cells | 1 | 5268 |
| CCDC74B (coiled-coil domain containing 74B) | -2.25 (active) | migration z below -2; enough cells | 0.29 | 3751 |
| CPNE9 (copine family member 9) | -0.08 | migration z between -2 and 2; enough cells | 0.86 | 5721 |
| MYPN (myopalladin) | -0.07 | migration z between -2 and 2; enough cells | 0.87 | 6256 |
| GBP3 (guanylate binding protein 3) | -1.17 | under 3300 nuclei; migration not judged | 0.58 | 3238 |
| ANKS1B (ankyrin repeat and sterile alpha motif domain containing 1B) | 0.48 | migration z between -2 and 2; enough cells | 1.01 | 5841 |
| ZNF683 (zinc finger protein 683) | -2.98 (active) | migration z below -2; enough cells | 0.11 | 5856 |
| DOHH (deoxyhypusine hydroxylase) | -0.26 | migration z between -2 and 2; enough cells | 0.76 | 5592 |
| FOXRED2 (FAD dependent oxidoreductase domain containing 2) | -0.5 | migration z between -2 and 2; enough cells | 0.75 | 6640 |
| REG3A (regenerating family member 3 alpha) | -0.62 | migration z between -2 and 2; enough cells | 0.68 | 5305 |
| SNRPE (small nuclear ribonucleoprotein polypeptide E) | -1.92 | migration z between -2 and 2; enough cells | 0.38 | 4468 |
| MCMDC2 (minichromosome maintenance domain containing 2) | 0.1 | migration z between -2 and 2; enough cells | 0.92 | 6190 |
| SOS1 (SOS Ras/Rac guanine nucleotide exchange factor 1) | 0.36 | migration z between -2 and 2; enough cells | 0.88 | 5691 |
| POLG (DNA polymerase gamma, catalytic subunit) | 0.05 | migration z between -2 and 2; enough cells | 0.82 | 4408 |
| CEP135 (centrosomal protein 135) | -1.27 | migration z between -2 and 2; enough cells | 0.55 | 5503 |
| COL12A1 (collagen type XII alpha 1 chain) | 0.04 | migration z between -2 and 2; enough cells | 0.9 | 7388 |
| PRRX1 (paired related homeobox 1) | -0.21 | migration z between -2 and 2; enough cells | 0.76 | 6263 |
| PEX3 (peroxisomal biogenesis factor 3) | -1.3 | migration z between -2 and 2; enough cells | 0.55 | 6136 |
| OGG1 (8-oxoguanine DNA glycosylase) | -1.06 | migration z between -2 and 2; enough cells | 0.6 | 4926 |
| PTBP2 (polypyrimidine tract binding protein 2) | 0.55 | migration z between -2 and 2; enough cells | 0.91 | 5760 |
| LY6K (lymphocyte antigen 6 family member K) | 0.52 | migration z between -2 and 2; enough cells | 1.02 | 6192 |
| FOXA1 (forkhead box A1) | 1.17 | migration z between -2 and 2; enough cells | 1.03 | 5519 |
| LRIG3 (leucine rich repeats and immunoglobulin like domains 3) | -0.51 | migration z between -2 and 2; enough cells | 0.76 | 5666 |
| H3C3 (H3 clustered histone 3) | 1.52 | migration z between -2 and 2; enough cells | 1.28 | 5890 |
| KHDRBS1 | 0.56 | migration z between -2 and 2; enough cells | 1.03 | 7408 |
| CATSPERT (catsper channel auxiliary subunit tau) | -2.84 (active) | migration z below -2; enough cells | 0.15 | 5512 |
| SPATA4 (spermatogenesis associated 4) | -0.2 | migration z between -2 and 2; enough cells | 0.83 | 5896 |
| POLR2K (RNA polymerase II, I and III subunit K) | 0.44 | migration z between -2 and 2; enough cells | 0.89 | 5692 |
| DSPP (dentin sialophosphoprotein) | -0.87 | migration z between -2 and 2; enough cells | 0.66 | 3735 |
| GSDMB (gasdermin B) | 0.77 | migration z between -2 and 2; enough cells | 1.08 | 5986 |

Part of the list above, set out differently.
{"Gene":"LY6K (lymphocyte antigen 6 family member K)","migration robust z-score":0.52,"migration class with cell-count check":"migration z between -2 and 2; enough cells","migration relative to mock":1.02,"nuclei per well, duplicate mean":6192}
{"Gene":"FOXA1 (forkhead box A1)","migration robust z-score":1.17,"migration class with cell-count check":"migration z between -2 and 2; enough cells","migration relative to mock":1.03,"nuclei per well, duplicate mean":5519}
{"Gene":"LRIG3 (leucine rich repeats and immunoglobulin like domains 3)","migration robust z-score":-0.51,"migration class with cell-count check":"migration z between -2 and 2; enough cells","migration relative to mock":0.76,"nuclei per well, duplicate mean":5666}
{"Gene":"H3C3 (H3 clustered histone 3)","migration robust z-score":1.52,"migration class with cell-count check":"migration z between -2 and 2; enough cells","migration relative to mock":1.28,"nuclei per well, duplicate mean":5890}
{"Gene":"KHDRBS1","migration robust z-score":0.56,"migration class with cell-count check":"migration z between -2 and 2; enough cells","migration relative to mock":1.03,"nuclei per well, duplicate mean":7408}
{"Gene":"CATSPERT (catsper channel auxiliary subunit tau)","migration robust z-score":"-2.84 (active)","migration class with cell-count check":"migration z below -2; enough cells","migration relative to mock":0.15,"nuclei per well, duplicate mean":5512}
{"Gene":"SPATA4 (spermatogenesis associated 4)","migration robust z-score":-0.2,"migration class with cell-count check":"migration z between -2 and 2; enough cells","migration relative to mock":0.83,"nuclei per well, duplicate mean":5896}
{"Gene":"POLR2K (RNA polymerase II, I and III subunit K)","migration robust z-score":0.44,"migration class with cell-count check":"migration z between -2 and 2; enough cells","migration relative to mock":0.89,"nuclei per well, duplicate mean":5692}
{"Gene":"DSPP (dentin sialophosphoprotein)","migration robust z-score":-0.87,"migration class with cell-count check":"migration z between -2 and 2; enough cells","migration relative to mock":0.66,"nuclei per well, duplicate mean":3735}
